Paper PMC10878141
No constants are given. Whether binding was seen depends on the method and setting. Binding seen in cells or lysates may run through a third protein. Some entries that bind do so weakly or less than the wild type. For part of these data: Tags and fused reporters may be left off the sequences shown.

By UniProt entry, the sequences of proteins in these tests, tags left out.
UniProt P06733: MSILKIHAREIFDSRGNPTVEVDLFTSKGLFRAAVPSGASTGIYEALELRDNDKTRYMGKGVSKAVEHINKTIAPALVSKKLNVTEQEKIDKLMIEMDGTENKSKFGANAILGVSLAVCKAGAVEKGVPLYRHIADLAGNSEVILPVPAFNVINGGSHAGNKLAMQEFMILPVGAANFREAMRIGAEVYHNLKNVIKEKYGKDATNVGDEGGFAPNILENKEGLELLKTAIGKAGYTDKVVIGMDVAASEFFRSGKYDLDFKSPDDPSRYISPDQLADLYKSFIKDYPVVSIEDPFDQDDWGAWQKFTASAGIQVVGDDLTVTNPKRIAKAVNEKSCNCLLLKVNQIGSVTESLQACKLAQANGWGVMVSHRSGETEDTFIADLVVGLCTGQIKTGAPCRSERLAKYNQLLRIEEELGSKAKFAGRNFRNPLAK
UniProt Q16665: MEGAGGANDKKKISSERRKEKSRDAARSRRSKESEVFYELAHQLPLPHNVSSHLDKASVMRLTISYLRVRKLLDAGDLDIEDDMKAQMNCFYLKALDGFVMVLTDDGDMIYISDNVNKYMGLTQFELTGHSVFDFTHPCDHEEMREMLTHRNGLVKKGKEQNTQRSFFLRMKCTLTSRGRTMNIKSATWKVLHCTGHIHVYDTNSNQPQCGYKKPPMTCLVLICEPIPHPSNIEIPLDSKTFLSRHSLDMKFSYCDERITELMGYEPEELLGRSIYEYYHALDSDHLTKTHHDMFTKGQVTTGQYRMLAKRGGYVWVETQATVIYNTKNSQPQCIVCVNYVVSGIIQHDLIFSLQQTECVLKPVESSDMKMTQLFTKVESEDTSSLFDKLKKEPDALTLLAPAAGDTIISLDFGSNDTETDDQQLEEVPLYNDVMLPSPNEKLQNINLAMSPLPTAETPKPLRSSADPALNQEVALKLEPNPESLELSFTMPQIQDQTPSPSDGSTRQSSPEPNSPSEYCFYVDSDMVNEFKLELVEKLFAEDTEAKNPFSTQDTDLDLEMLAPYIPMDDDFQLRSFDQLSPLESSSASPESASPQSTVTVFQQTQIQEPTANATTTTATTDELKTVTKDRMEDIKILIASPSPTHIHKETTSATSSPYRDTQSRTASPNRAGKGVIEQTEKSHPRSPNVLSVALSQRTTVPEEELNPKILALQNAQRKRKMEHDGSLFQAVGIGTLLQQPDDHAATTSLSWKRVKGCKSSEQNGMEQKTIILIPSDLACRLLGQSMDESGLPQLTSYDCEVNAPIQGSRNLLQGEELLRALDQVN

Key:
His-USP21 (human) = biological target: T1, His-USP21 (human) (UniProt Q9UK80); assay: co-IP; His-USP21 or its truncated mutants transfected into HEK293T cells; co-IP and blot for HSP90 and ENO1
T1 sequence: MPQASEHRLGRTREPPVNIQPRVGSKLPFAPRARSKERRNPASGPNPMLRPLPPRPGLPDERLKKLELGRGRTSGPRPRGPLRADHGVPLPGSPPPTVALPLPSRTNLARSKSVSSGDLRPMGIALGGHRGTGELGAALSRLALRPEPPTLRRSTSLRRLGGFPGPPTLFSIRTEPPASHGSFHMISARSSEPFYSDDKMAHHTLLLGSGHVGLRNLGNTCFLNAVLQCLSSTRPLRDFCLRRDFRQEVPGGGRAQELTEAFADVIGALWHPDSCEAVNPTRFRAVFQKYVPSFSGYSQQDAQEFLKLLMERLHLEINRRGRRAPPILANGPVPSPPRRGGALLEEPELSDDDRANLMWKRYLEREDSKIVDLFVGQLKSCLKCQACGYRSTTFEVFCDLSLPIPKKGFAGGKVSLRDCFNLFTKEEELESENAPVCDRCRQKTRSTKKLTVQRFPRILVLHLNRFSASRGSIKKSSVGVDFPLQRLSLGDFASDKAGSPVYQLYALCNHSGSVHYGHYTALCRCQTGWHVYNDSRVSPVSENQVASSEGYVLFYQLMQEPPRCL

[1] = biological target: T2, ubiquitin-specific protease 21 (USP21) (human (endogenous in QBC939 and HuCCT1)) (UniProt Q9UK80); assay: co-IP; endogenous proteins in lysates of CCA cells (QBC939; consistent in HuCCT1); IP of USP21, and reverse IP of HSP90 and of ENO1, then blot
T2 sequence: T1 sequence

ENO1 in HEK293T cells (from UniProt P06733 1-434) (enzyme)
binding (His-USP21 (human)): binds

Hypoxia-inducible factor -1a (HIF1A) (from UniProt Q16665 1-826)
binding [1]: no binding

alpha-Enolase 1 (ENO1) (from UniProt P06733 1-434) (enzyme)
binding [1]: binds
